Test system: injured neural tissue
Experiment: NGS analysis of HCDR3s recovered after in vivo biopanning
Design: species or system C57Bl/6 mice
Conditions: for Enrichment Value: fold enrichment, Round 2 reads/Round 1 reads; for Frequency: observed after biopanning, NGS

Sequence | Enrichment Value | Frequency
AAPSWNNHVSY [SA2, 4, subacute injury] | 17.57 | 246
SLYGSSRHTAPISF (cyclized on bromoacetamide scaffold with biotin) [A2, 2, acute stage; peptide cyclized on bromoacetamide scaffold containing biotin] | 22 | 22
TAERDARTFQY (cyclized on bromoacetamide scaffold with biotin) [A1, 1, acute stage; peptide cyclized on bromoacetamide scaffold containing biotin] | 2.47 | 111
TDLAVAHPVRY (cyclized on bromoacetamide scaffold with biotin) [SA1, 3, subacute stage; peptide cyclized on bromoacetamide scaffold containing biotin] | 49 | 638
